These results are taken from PMC9655074.

The chains behind the UniProt entries cited, without tags or fusion partners. Where a name states a change or a piece, a line headed by the entry shows the natural chain unless it says otherwise. A line that says so, or that is headed by a name, gives the form on record, which may keep a tag or linker.
myc-tagged hnRNP-C1 (P07910, form named): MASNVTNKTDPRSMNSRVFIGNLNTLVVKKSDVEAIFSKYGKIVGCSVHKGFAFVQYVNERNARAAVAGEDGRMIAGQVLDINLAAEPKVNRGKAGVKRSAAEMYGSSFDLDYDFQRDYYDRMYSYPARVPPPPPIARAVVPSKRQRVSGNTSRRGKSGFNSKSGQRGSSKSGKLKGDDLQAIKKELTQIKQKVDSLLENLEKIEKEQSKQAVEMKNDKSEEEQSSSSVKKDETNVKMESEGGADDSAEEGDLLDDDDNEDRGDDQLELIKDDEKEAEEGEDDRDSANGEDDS
UniProt P03466: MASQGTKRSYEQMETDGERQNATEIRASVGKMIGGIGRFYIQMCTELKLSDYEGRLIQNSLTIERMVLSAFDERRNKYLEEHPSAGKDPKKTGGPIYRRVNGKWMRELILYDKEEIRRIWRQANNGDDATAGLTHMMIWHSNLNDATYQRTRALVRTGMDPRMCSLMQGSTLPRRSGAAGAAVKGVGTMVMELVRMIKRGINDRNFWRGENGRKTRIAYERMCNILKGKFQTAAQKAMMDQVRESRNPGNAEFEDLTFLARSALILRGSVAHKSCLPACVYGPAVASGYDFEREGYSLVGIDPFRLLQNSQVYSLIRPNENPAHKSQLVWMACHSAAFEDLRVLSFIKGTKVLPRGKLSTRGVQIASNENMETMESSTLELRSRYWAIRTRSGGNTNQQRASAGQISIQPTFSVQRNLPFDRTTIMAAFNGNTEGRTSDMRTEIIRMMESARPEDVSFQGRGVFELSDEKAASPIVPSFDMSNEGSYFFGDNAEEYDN
UniProt P15682: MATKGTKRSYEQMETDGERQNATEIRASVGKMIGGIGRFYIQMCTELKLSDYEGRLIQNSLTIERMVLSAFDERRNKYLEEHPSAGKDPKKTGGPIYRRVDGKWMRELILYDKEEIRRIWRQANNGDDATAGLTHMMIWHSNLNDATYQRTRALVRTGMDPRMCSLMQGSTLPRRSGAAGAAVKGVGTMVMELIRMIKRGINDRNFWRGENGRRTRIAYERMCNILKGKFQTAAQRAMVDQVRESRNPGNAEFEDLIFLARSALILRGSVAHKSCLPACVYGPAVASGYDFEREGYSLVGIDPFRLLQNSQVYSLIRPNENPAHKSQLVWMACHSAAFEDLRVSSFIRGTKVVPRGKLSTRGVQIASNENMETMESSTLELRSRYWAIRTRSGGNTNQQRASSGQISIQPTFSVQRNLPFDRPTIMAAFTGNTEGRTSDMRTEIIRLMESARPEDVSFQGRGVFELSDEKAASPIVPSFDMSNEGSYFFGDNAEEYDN

Results are given in words; binding and its absence hold for the method and conditions named. Binding seen in cells or lysates may run through a third protein. Some binding calls cover weakened binding; strength is not graded here.

The experiment deals with myc-tagged hnRNP-C1 (UniProt P07910). The experiment is described as follows: co-IP.

In the case of “NP of A/PR/8/34(H1N1), untagged, in pcDNA3 (from UniProt P03466 1-498)”, the binding result is listed as “binds”.
For “NP of A/WSN/1933(H1N1) virus, from infection (from UniProt P15682 1-498)”, the binding result is “binds”.
